The whole screen tested about 290,000 compounds, of which about 110 (0.038%) were called active. Inconclusive results, whose numbers are uncertain, are shown with a selection of clear calls. The call rests on the fitted dose curve; in most records, active means well fitted inhibition curve with a large enough effect in the polarisation, with a control signal flat (not every such curve was filed as active); inconclusive means small, poorly fitted or top-dose-only effect, or effect the other way, or a change in a side signal; inactive means no such curve, though single readings can be large or run the other way; the % refers to the polarisation. Potencies of inconclusive entries are doubtful fits and often do not repeat. A note “side channel” means that the fit belongs to a control or component signal, not to the main read-out.
Molecular target: Histone-lysine N-methyltransferase 2A (Homo sapiens) (UniProt Q03164)
Experiment: qHTS Fluorescence Polarization Assay for Inhibitors of MLL CXXC domain - DNA interaction
Conditions: MLL-CXXC / FITC-HOXA9 DNA fluorescence polarization; series mostly up to 115 µM
Procedure, shortened: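 Purified MLL-CXXC (added from a 7 uM solution) was preincubated 5 min at ambient with pinned compounds in 50 mM Tris-HCl pH 7.5, 50 mM NaCl, 1 mM DTT, 0.05% BSA. Fluorescein-labeled HOX-A9 DNA (50 nM solution) followed, 30 min, then polarization read.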
Potency means the concentration at half of the fitted maximal effect.

Protein sequences, listed by entry. Tags and fused reporters are not part of them.
UniProt Q03164, whole entry, looked up: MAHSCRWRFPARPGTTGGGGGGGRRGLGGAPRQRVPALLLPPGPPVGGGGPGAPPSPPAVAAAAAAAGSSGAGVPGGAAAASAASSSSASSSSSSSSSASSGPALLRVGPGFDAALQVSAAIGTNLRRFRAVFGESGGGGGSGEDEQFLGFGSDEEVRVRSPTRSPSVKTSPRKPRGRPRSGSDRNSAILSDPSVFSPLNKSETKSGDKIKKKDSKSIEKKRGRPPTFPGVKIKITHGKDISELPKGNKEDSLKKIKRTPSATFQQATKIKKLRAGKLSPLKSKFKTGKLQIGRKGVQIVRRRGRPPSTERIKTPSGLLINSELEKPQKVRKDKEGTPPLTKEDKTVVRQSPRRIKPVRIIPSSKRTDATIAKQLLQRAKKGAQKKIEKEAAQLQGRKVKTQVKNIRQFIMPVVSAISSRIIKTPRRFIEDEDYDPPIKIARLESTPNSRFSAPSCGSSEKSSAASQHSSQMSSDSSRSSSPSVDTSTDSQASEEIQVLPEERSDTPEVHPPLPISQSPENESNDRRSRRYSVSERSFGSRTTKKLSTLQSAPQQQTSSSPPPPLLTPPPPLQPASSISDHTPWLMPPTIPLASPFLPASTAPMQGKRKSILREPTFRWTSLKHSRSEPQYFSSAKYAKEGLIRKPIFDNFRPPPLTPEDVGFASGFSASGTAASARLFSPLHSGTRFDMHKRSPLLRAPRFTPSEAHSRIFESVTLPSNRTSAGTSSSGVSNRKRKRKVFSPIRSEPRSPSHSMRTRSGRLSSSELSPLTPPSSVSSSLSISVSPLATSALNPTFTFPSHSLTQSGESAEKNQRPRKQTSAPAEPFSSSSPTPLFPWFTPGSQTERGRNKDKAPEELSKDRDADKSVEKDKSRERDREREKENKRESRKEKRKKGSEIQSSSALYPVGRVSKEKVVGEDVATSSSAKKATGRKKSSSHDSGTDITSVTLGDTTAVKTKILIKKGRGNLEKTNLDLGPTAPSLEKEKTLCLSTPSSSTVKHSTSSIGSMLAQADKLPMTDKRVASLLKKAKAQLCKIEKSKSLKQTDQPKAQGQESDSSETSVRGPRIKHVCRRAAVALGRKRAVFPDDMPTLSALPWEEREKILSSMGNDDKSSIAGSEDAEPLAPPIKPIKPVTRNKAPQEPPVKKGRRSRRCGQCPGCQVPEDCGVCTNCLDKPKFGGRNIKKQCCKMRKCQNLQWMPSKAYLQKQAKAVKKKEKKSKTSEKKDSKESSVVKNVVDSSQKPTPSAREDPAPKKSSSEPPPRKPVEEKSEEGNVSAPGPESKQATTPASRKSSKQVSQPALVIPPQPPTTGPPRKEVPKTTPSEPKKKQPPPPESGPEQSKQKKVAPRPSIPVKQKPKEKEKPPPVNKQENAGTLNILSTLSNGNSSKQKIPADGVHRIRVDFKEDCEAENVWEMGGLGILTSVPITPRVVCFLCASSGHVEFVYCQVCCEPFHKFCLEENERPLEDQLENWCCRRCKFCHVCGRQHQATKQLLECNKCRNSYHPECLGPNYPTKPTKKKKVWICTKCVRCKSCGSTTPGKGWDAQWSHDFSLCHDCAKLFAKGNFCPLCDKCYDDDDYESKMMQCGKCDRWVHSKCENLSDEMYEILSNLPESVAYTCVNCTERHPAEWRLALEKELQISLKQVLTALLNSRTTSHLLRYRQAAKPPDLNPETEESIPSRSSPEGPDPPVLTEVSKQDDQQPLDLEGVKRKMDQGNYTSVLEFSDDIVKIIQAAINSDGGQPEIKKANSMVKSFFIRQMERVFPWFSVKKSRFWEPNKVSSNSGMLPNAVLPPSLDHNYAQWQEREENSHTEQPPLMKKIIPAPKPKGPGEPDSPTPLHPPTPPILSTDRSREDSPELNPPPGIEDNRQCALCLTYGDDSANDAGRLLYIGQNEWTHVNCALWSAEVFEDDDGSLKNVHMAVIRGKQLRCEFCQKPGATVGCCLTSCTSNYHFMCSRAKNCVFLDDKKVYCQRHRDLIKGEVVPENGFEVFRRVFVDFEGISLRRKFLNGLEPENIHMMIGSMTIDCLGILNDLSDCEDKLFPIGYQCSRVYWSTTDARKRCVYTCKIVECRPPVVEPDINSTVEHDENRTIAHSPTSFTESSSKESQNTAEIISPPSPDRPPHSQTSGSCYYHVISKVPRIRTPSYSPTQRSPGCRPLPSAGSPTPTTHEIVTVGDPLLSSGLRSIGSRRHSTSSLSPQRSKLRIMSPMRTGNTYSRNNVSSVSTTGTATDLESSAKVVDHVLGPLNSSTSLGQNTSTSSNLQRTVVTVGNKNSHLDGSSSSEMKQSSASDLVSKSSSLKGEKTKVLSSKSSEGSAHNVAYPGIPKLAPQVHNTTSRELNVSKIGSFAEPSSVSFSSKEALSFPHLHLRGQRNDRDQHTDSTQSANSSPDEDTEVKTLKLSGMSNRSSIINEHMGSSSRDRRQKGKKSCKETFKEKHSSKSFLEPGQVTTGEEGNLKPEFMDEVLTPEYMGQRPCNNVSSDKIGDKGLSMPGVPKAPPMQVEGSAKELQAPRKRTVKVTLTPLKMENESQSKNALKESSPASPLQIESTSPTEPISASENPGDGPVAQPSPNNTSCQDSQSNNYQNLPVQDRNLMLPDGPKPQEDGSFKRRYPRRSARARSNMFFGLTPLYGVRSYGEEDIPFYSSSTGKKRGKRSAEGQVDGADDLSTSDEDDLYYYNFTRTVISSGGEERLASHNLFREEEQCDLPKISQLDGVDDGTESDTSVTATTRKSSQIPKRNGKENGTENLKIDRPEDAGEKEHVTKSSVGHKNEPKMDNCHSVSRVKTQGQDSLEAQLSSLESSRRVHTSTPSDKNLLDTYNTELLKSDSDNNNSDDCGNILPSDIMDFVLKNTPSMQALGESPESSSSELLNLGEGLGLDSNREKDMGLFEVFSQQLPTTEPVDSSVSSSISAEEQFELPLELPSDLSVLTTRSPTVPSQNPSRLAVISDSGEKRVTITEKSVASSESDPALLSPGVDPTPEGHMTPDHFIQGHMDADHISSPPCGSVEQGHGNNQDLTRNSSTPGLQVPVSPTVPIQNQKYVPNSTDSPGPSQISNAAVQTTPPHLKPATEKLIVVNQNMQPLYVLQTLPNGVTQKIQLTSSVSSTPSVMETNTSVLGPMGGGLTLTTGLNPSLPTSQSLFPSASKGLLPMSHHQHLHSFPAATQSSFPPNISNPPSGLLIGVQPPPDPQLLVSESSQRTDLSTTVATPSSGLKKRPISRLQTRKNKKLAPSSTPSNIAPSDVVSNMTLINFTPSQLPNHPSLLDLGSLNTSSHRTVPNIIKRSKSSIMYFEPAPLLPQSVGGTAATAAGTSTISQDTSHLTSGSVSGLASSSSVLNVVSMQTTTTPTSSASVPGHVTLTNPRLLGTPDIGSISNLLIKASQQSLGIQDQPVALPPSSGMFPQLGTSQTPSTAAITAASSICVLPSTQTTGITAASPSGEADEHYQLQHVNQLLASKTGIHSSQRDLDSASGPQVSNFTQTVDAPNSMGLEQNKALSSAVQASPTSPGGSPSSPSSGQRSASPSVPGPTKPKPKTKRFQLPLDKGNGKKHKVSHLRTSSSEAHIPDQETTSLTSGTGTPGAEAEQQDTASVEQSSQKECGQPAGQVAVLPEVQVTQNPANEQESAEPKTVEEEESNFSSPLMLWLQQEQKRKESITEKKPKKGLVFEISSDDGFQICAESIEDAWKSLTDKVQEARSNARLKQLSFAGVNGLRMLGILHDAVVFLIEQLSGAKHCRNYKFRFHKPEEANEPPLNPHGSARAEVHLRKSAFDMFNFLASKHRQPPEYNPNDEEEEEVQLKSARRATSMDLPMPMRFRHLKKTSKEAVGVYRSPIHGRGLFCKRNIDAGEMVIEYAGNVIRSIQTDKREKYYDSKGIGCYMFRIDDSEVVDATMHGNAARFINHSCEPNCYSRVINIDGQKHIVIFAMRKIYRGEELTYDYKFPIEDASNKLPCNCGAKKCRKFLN

| SMILES | Potency |
| --- | --- |
| CCNC(=O)CSc1nc2cc(S(=O)(=O)Nc3ccc(OC)cc3)ccc2o1 | inactive |
| CCC(C)(C)NC(=O)/C=C/c1cccs1 | inconclusive: 17.8 µM [fluorescent, side channel, partial curve] |
| CC(C)(C)c1ccc(C(=O)Nc2ccc(Cl)cc2)cc1 | inactive |
| S=c1nc(NCc2cccc(Cl)c2)c2ccccc2[nH]1 | inconclusive: 35.5 µM [inhibitor, single point] |
| O=C(/C=C/c1ccc(S(=O)(=O)N2CCOCC2)cc1)NCc1ccc(Cl)cc1 | inconclusive: 10 µM [fluorescent, side channel, single point] |
| COc1ccc(OC)c(NC(=O)C(=O)c2cn(CC(=O)N3CCCC3)c3ccccc23)c1 | inconclusive: 14.1 µM [quencher, side channel, single point] |
| CCN(CC)C(=O)c1cc2cc([N+](=O)[O-])ccc2s1 | inconclusive: 15.8 µM [inhibitor, single point] |
| O=C(N/N=C\c1c(O)ccc2ccccc12)c1ccc(S(=O)(=O)N2CCCCC2)cc1 | inconclusive: 4.47 µM [fluorescent, side channel, full curve] |
| CC1CC(C)(C)N2C(=O)C(=C(C#N)C#N)c3cccc1c32 (configuration not stated) | inconclusive: 35.5 µM [quencher, side channel, partial curve] |
| CCOc1cc(/C=C2\C(=N)N3N=C(C)SC3=NC2=O)ccc1OCCOc1ccccc1 | inconclusive: 5.62 µM [inhibitor, single point] |
| CC(=O)c1ccc(S(=O)(=O)N(C)CC(=O)N2CCCCCC2)cc1 | inconclusive: 70.8 µM [fluorescent, side channel, single point] |
| Cc1cnc(CN(C)Cc2c(C(=O)N3CCc4ccccc4C3)nc3ccc(Cl)cn23)[nH]1 | inconclusive: 1 µM [inhibitor, full curve, poor fit] |
| CC(/C=C/c1ccc(N(C)C)cc1)=N/N=C1/NC(=O)CC(C(=O)Nc2ccc(Cl)cc2)S1 (configuration not stated) | inconclusive: 39.8 µM [fluorescent, partial curve] |
| Cc1ccc(Br)cc1S(=O)(=O)Nc1cccnc1 | inconclusive: 39.8 µM [inhibitor, single point] |
| CCn1cc([N+](=O)[O-])c(C(=O)N2N=C(c3ccc(Cl)c(Cl)c3)CC2c2ccccc2O)n1 (configuration not stated) | inactive |
| O=c1c2[nH]c3ccccc3c2ncn1CCC1=CCCCC1 | inactive |
| CC1CN(c2ccc([N+](=O)[O-])c(NCCOc3ccccc3)c2)CC(C)N1 (configuration not stated) | inconclusive: 39.8 µM [quencher, side channel, single point] |
| CCCCn1c(SCC(=O)c2ccc(OCC)cc2)nc2cc(S(N)(=O)=O)ccc21 | inconclusive: 15.8 µM [quencher, side channel, full curve, poor fit] |
| CN(C)S(=O)(=O)c1ccc(Cl)c(NC(=O)CN2CCc3ccccc3C2)c1 | inconclusive: 50.1 µM [fluorescent, side channel, single point] |

Single entries from above.
Potency with `O=C(N/N=C\c1c(O)ccc2ccccc12)c1ccc(S(=O)(=O)N2CCCCC2)cc1` reads inconclusive: 4.47 µM [fluorescent, side channel, full curve]
Potency with `Cc1cnc(CN(C)Cc2c(C(=O)N3CCc4ccccc4C3)nc3ccc(Cl)cn23)[nH]1` reads inconclusive: 1 µM [inhibitor, full curve, poor fit]

Remaining list, next part.

| SMILES | Potency |
| --- | --- |
| CN(C)CCNC(=O)/C(=C/c1ccc(-c2ccc(Cl)cc2)o1)NC(=O)c1ccccc1 | inactive |
| CCc1ccc(/C=C2\Oc3c(ccc(O)c3CN3CCN(C)CC3)C2=O)cc1 | inconclusive: 70.8 µM [fluorescent, side channel, single point] |
| CCOc1ccc(CC(=O)Nc2c(C(N)=O)oc3ccc(Br)cc23)cc1OCC | inconclusive: 63.1 µM [fluorescent, side channel, single point] |
| Cc1cccc(N2CC(C(=O)Nc3nnc(SCCC4OCCO4)s3)CC2=O)c1 (configuration not stated) | inconclusive: 70.8 µM [fluorescent, side channel, single point] |
| Cc1c(C(=O)OCC(=O)N(C)c2ccccc2)oc2ccccc12 | inconclusive: 15.8 µM [fluorescent, side channel, single point] |
| OC(COCc1ccc2c(c1)OCO2)CN1CCC(Cc2ccccc2)CC1 (configuration not stated) | inconclusive: 44.7 µM [inhibitor, single point] |
| C[N+](C)(CCCCCC[N+](C)(C)CCCN1C(=O)c2cccc3cccc(c23)C1=O)CCCN1C(=O)c2cccc3cccc(c23)C1=O | inconclusive: 31.6 µM [quencher, side channel, partial curve] |
| O=c1c(Cl)c(NCCO)ncn1-c1ccccc1 | inactive |
| CCN(CC)CCCNC(=S)N1CCN(c2nc(-c3ccc(F)cc3)cs2)CC1 | inconclusive: 31.6 µM [quencher, side channel, partial curve] |
| COc1cc(/C=C/c2cc(C(=O)O)c3ccccc3n2)cc(OC)c1O | inactive |
| COc1ccccc1CNC(=O)C1CCC(=O)N1C(C)C (configuration not stated) | inconclusive: 11.2 µM [fluorescent, side channel, single point] |
| NC(=O)CC(NC(=O)Cc1cccc2ccccc12)c1ccc(NCCN2CCCC2)c([N+](=O)[O-])c1 (configuration not stated) | inconclusive: 10 µM [quencher, side channel, full curve, poor fit] |
| O=C(O)C1CC(=O)N(c2ccc3c(c2)OCCO3)C1 (configuration not stated) | inconclusive: 70.8 µM [fluorescent, side channel, single point] |
| Cc1ccc(N(C(=O)c2csnn2)C(C(=O)NC2CCCCC2)c2ccncc2)cc1 (configuration not stated) | inconclusive: 39.8 µM [fluorescent, side channel, single point] |
| Cc1ccc(-n2c(=O)c3ccc(C(=O)NCc4ccco4)cc3n(Cc3ccccc3C#N)c2=O)cc1 | inactive |
| FC(F)(F)c1cccc(Sc2nc(-c3ccccc3)nnc2C(F)(F)F)c1 | inconclusive: 1.41 µM [fluorescent, side channel, partial curve, poor fit] |
| CCOc1cc(/C=C2\C(=N)N3N=C(S(=O)(=O)CC)SC3=NC2=O)ccc1OC(=O)c1ccco1 | inconclusive: 4.47 µM [fluorescent, side channel, full curve, poor fit] |
| NC(=O)c1ccc(Oc2ccc(C(N)=O)cc2)cc1 | inconclusive: 17.8 µM [inhibitor, partial curve] |
